# Data taken from PMC4784862, “DNA Sequence Determinants Controlling Affinity, Stability and Shape of DNA Complexes Bound by the Nucleoid Protein Fis”.
# Changes are numbered by the printed parent chain. For at least one entry, the source does not settle the construct or the ends of the probe. Where a protein sequence is shown, tags need not be part of it. For some assays here: Whether high values mean tight binding is not given here for every scale.
# Key:
# Fis WT = molecular target: T1, Fis WT (UniProt P0A6R3); test: EMSA; settings: EMSA: 20 mM Hepes pH 7.5, 0.15 M NaCl, 5% glycerol, 0.5 mg/ml BSA, 1 mM EDTA, 1 mM DTT, 0.1 nM 32P 27 bp probe, 50 ug/ml poly dI/dC, temperature not stated, recombinant protein, label: 5'-32P
# T1 sequence (looked up, limits assumed): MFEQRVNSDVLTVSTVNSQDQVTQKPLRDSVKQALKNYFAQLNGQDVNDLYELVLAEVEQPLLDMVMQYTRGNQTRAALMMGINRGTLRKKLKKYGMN
# Fis T75A = molecular target: T2, Fis T75A (UniProt P0A6R3); test: EMSA; settings: EMSA: 20 mM Hepes pH 7.5, 0.15 M NaCl, 5% glycerol, 0.5 mg/ml BSA, 1 mM EDTA, 1 mM DTT, 0.1 nM 32P 27 bp probe, 50 ug/ml poly dI/dC; temperature not stated; recombinant protein; label: 5'-32P
# T2 sequence (looked up, limits assumed): T1 sequence (looked up, limits assumed) with T75A
sequence,measurement,setting,value
AAATTGGTTTGAATTTTGAGCCAATTT (double strand) [F1±8G],Kd,"Fis WT; t1/2 <0.25 min, Table 3 gives error 0.8",30 nM
AAATTAGTTTGAATTTTGAGCTAATTT (double strand) [F1±8A],Kd,Fis WT; t1/2 5 min,2.1 nM
AAATTTGGAGGAATTTTCTCCAAATTT (double strand) [F32],Kd,Fis WT; t1/2 too fast to detect,28 nM
AAATTTGTTTGAGCGTTGAGCAAATTT (double strand) [F28],Kd,Fis T75A,> 1000 nM
AAATTTGTAGGAATTTTCTGCAAATTT (double strand) [F31],binding signal (fold weaker than F1),Fis WT; t1/2 too fast to detect,100
